No constants are given. Whether binding was seen depends on the method and setting. In cells and extracts the contact can be indirect. For part of these data: Binding calls can cover weak binding; strength is not graded here. Sequences can lack the tags named with a protein.
What was measured:
Assay in all cases: split reporter; BiFC: BrFT-like proteins fused to nEYFP (pSPYNE-35S) and BrFD or AtFD fused to cEYFP (pSPYCE-35S), co-infiltrated with P19 into N. benthamiana leaves; confocal microscopy after 48 h
[1] = target: BrTSF fused to the N-terminal half of EYFP (BrTSF-nEYFP) (Brassica rapa ssp. pekinensis (Chinese cabbage))
[2] = target: BrFT1 fused to the N-terminal half of EYFP (BrFT1-nEYFP) (Brassica rapa ssp. pekinensis (Chinese cabbage))
[3] = target: BrBFT^3m fused to the N-terminal half of EYFP (Brassica rapa ssp. pekinensis (Chinese cabbage))
[4] = target: BrFT2 fused to the N-terminal half of EYFP (BrFT2-nEYFP) (Brassica rapa ssp. pekinensis (Chinese cabbage))
[5] = target: BrBFT fused to the N-terminal half of EYFP (BrBFT-nEYFP) (Brassica rapa ssp. pekinensis (Chinese cabbage))
[6] = target: BrTSF^3m fused to the N-terminal half of EYFP (Brassica rapa ssp. pekinensis (Chinese cabbage))

Measured: binding

B1: AtFD fused to the C-terminal half of EYFP (protein, UniProt Q84JK2 1-285)
chain: MLSSAKHQRNHRLSATNKNQTLTKVSSISSSSPSSSSSSSSTSSSSPLPSQDSQAQKRSLVTMEEVWNDINLASIHHLNRHSPHPQHNHEPRFRGQNHHNQNPNSIFQDFLKGSLNQEPAPTSQTTGSAPNGDSTTVTVLYSSPFPPPATVLSLNSGAGFEFLDNQDPLVTSNSNLHTHHHLSNAHAFNTSFEALVPSSSFGKKRGQDSNEGSGNRRHKRMIKNRESAARSRARKQAYTNELELEVAHLQAENARLKRQQDQLKMAAAIQQPKKNTLQRSSTAPF
no binding: [1] | [5] | [6]
binds: all other assays above
